Test results reported in PMC5951673.
Results are given in words; binding and its absence hold for the method and conditions named. In cells and extracts the contact can be indirect. Some entries that bind do so weakly or less than the wild type. For part of these data: Tags and fused reporters may be left off the sequences shown.

Protein sequences, listed by entry. Tags and fused reporters are not part of them. Residues count along the entry.
UniProt Q13586, residues 23-685: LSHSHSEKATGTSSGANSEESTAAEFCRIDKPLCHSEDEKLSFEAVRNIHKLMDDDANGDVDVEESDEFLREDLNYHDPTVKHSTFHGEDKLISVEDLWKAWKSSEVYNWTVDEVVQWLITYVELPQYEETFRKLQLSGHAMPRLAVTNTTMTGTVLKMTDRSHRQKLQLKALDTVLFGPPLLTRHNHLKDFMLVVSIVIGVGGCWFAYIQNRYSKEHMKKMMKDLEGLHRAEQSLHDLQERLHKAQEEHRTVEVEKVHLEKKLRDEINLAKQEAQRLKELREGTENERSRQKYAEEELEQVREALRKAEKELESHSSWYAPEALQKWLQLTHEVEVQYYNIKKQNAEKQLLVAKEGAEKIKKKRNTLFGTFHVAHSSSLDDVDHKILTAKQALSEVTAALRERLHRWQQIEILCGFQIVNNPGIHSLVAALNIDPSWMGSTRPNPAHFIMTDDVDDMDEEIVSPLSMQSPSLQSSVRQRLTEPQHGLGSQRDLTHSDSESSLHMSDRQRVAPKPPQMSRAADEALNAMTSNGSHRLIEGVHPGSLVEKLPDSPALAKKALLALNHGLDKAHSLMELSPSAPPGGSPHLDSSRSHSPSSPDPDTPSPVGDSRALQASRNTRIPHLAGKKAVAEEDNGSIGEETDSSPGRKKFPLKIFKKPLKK

T1: CLCA2-Flag (human Chloride Channel Accessory 2, Flag-tagged) (human) (UniProt Q9UQC9)
T1 sequence: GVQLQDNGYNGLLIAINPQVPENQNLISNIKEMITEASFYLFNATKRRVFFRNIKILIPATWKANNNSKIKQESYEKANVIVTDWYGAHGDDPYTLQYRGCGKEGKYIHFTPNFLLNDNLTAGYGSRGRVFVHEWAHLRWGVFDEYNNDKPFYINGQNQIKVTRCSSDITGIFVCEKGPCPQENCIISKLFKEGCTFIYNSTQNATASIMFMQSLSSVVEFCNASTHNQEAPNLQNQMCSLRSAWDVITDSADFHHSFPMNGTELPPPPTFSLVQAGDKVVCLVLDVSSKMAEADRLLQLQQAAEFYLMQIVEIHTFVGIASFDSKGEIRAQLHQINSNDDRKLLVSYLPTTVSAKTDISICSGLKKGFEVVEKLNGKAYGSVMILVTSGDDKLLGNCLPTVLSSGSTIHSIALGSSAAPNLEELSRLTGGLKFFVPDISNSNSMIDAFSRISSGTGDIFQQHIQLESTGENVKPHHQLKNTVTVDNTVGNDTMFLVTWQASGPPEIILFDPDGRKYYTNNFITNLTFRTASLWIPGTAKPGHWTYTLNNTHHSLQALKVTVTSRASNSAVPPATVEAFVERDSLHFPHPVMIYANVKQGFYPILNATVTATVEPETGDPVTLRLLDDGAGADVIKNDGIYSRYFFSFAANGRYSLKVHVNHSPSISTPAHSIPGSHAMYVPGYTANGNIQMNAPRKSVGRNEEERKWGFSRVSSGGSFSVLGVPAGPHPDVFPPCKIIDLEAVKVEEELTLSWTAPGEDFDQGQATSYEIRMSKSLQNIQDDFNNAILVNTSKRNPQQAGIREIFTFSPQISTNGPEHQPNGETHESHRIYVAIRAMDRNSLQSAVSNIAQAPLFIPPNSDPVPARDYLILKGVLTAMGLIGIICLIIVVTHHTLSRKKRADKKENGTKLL

T2: CLCA2, endogenous in MCF10A (human (endogenous in MCF10A)) (UniProt Q9UQC9)
T2 sequence: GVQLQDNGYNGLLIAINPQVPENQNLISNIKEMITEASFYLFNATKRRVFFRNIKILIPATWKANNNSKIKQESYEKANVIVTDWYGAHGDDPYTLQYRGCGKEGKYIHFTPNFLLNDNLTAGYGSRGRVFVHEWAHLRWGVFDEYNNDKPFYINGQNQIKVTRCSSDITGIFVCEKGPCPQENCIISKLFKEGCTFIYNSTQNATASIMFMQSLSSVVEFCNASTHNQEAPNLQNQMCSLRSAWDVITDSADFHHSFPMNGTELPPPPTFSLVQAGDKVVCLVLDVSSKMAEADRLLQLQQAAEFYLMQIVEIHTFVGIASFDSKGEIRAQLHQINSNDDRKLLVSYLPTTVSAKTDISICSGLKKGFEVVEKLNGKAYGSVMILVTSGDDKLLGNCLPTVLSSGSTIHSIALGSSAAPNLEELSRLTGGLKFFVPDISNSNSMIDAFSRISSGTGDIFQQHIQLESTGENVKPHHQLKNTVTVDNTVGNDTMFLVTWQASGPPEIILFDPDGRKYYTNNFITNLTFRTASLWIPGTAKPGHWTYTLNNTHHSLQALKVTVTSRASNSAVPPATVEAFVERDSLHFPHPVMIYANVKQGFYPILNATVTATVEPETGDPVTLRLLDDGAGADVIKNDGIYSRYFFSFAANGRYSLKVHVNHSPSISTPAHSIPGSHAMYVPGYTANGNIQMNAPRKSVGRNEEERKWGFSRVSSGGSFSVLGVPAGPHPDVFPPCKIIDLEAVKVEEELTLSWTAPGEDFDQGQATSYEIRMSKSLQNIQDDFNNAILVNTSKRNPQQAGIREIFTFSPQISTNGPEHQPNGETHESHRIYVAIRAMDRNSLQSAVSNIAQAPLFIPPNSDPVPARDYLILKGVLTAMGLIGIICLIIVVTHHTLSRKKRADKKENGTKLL


Assays:
[1] = molecular target: T1, CLCA2-Flag (human Chloride Channel Accessory 2, Flag-tagged) (human); experiment: co-IP; HEK293 cells transduced with CLCA2-flag or vector; cleared NP40 lysates (25mM Tris pH 7.6, 150mM NaCl, 0.5% NP-40); protein A/G beads washed four times; immunoblot, bands quantified by fluorimetric scans (Licor Odyssey); repeated on surface-biotinylated cells (Fig 5A)
[2] = molecular target: T2, CLCA2, endogenous in MCF10A (human (endogenous in MCF10A)); experiment: co-IP; MCF10A cells grown to superconfluency and treated with CPA to activate STIM-1; endogenous proteins; vector or shRNA targeting CLCA2

Row | binding [1] | binding [2] | Molecule
1 | binds |  | STIM-1 (Stromal Interaction Molecule 1) (from UniProt Q13586 23-685)
2 |  | binds | STIM-1, endogenous in MCF10A (from UniProt Q13586 23-685)
3 | no binding |  | Bestrophin 1 (protein, UniProt O76090 1-585) MTITYTSQVANARLGSFSRLLLCWRGSIYKLLYGEFLIFLLCYYIIRFIYRLALTEEQQLMFEKLTLYCDSYIQLIPISFVLGFYVTLVVTRWWNQYENLPWPDRLMSLVSGFVEGKDEQGRLLRRTLIRYANLGNVLILRSVSTAVYKRFPSAQHLVQAGFMTPAEHKQLEKLSLPHNMFWVPWVWFANLSMKAWLGGRIRDPILLQSLLNEMNTLRTQCGHLYAYDWISIPLVYTQVVTVAVYSFFLTCLVGRQFLNPAKAYPGHELDLVVPVFTFLQFFFYVGWLKVAEQLINPFGEDDDDFETNWIVDRNLQVSLLAVDEMHQDLPRMEPDMYWNKPEPQPPYTAASAQFRRASFMGSTFNISLNKEEMEFQPNQEDEEDAHAGIIGRFLGLQSHDHHPPRANSRTKLLWPKRESLLHEGLPKNHKAAKQNVRGQEDNKAWKLKAVDAFKSAPLYQRPGYYSAPQTPLSPTPMFFPLEPSAPSKLHSVTGIDTKDKSLKTVSSGAKKSFELLSESDGALMEHPEVSQVRRKTVEFNLTDMPEIPENHLKEPLEQSPTNIHTTLKDHMDPYWALENRDEAHS
